# Source: the supplement of paper PMC3334620
# In all, about 33,000 sequences were measured (“E-score (-0.5 to 0.5)”: median about -0.0034, highest 2% from about 0.25 on). This is one part of the list.
# Biological target: T1, Yap3 (UniProt P38749)
# T1 sequence: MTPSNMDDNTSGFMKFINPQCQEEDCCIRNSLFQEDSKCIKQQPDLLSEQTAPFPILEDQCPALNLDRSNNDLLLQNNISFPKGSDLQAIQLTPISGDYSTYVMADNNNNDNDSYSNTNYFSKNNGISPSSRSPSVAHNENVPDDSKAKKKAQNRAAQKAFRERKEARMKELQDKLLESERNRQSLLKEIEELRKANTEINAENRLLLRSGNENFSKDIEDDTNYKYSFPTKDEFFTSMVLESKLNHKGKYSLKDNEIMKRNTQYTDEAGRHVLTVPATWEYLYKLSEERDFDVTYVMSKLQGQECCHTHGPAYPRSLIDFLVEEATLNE
# Experiment: PBM E-score (8-mer binding enrichment) (E-score (-0.5 to 0.5)); higher = stronger / more preferred TF binding
# Conditions: protein concentration: 100 nM; construct: GST-full length
# Method in brief: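 Each ungapped eight-base word and its reverse complement, pooled, received an E-score from the Universal PBM Analysis Suite. Underlying scans, normalised with masliner, recorded fluorescent anti-GST bound to GST-tagged yeast transcription factors. These were applied at about 100-200 nM to universal all-10-mer Agilent arrays double-stranded by primer extension.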
row,Sequence,PBM E-score
1,AACAGTAG,0.0583
2,CGCCCCTA,0.0165
3,AATCAGAG,0.0956
4,AAAGTCGC,0.085
5,GGACTAAA,-0.121
6,CGATCGGC,0.00629
7,ATCTATCG,-0.0358
8,ATAACTGC,-0.074
9,AGCAAGTC,-0.11
10,ACGGAGCT,-0.249
11,AAGCCCCA,-0.311
12,ATTTTCTG,0.0697
13,ATCTGTAA,-0.0303
14,ACTTAGCT,-0.0578
15,ACCTGTCT,-0.111
16,AACTAACG,0.103
17,ACAGCACA,0.0102
18,GCCCCGCA,-0.221
19,CGGCTTTA,0.0265
20,ACACCCCG,-0.325
21,GCCTAGGA,-0.227
22,CAATTGAG,0.0311
23,CTGCTTGC,-0.171
24,CCAAACGA,-0.0994
25,CCCGAAGA,-0.137

row,Sequence,PBM E-score
1,ATGGGCAG,0.0284
2,GCATCCGA,-0.169
3,AGTCGACC,-0.0691
4,GCGAGAAC,-0.0233
5,TACGGCCA,-0.0385
6,AGTTGTAG,0.0912
7,GCTGCGCA,-0.253
8,ACGCTCGA,-0.08
9,ACAAGGGA,-0.12
10,CCTTTGCA,-0.0482
11,GCTAAGTA,0.146
12,CCGTATTC,0.0278
13,AGCTGACA,-0.153
14,AGCGGCCT,-0.207
15,ACCTATTC,-0.109
16,AAAGGCTA,0.00049
17,ACCGCACA,-0.11
18,AAGTCCGG,-0.149
19,GATTCTAA,-0.0356
20,GTCATTGA,0.112
21,AAATCGGA,-0.00717
22,AACATAGG,0.0402
23,CACACCGC,-0.176
24,TAAACTGA,0.147
25,AGTAAGAG,0.0235

row,Sequence,PBM E-score
1,CCTCCAAA,-0.122
2,ACGTCGGC,-0.0204
3,GCGTCACA,0.0364
4,ATGAGTCA,0.192
5,CCCACCAG,-0.148
6,ATATTCAG,0.131
7,ATGAATTG,0.208
8,GCACCCCA,-0.118
9,GTCAGCGA,-0.149
10,ACGGGACG,-0.169
11,AATCAGGG,-0.127
12,CCCGTAGA,-0.345
13,ACCACGGT,-0.281
14,ACAATCGC,0.124
15,AGGTCTAA,0.00299
16,ACATGCCC,-0.183
17,AAAATACT,0.0626
18,CAAGTCCG,-0.194
19,AAATATGT,0.286
20,ACATCCCA,-0.08
21,CCGTTAGG,0.00098
22,AGGCCAAT,-0.0612
23,AGCTAACA,-0.0328
24,ATCCCTAC,0.077
25,GAGAGGGA,-0.278

row,Sequence,PBM E-score
1,CAATAGAC,0.111
2,AGGCGAAC,-0.129
3,CTAATAAA,0.178
4,GAGAAGCA,-0.118
5,CGACCCTC,-0.232
6,GGCTTTGA,-0.00632
7,AAGGCGTG,-0.157
8,AACTAAGG,0.0261
9,GACGCCCA,-0.0057
10,TGTGAACA,0.0599
11,AATTATGG,0.238
12,TGGTCAAA,0.0841
13,CCAGCCCC,-0.218
14,CGGGTCAA,-0.0934
15,GTGTTGGA,0.0456
16,CACCTTAA,0.142
17,TACGTAAA,0.319
18,CATCGTAC,0.029
19,GTCGACAC,-0.0164
20,AGGCAAGA,-0.00431
21,AAACTTAT,0.159
22,CTTTATTA,0.199
23,CGACGACG,-0.176
24,CATCCGCA,0.0681
25,TGGGTCAA,-0.0606

row,Sequence,PBM E-score
1,AGATCAGC,-0.126
2,CCATTACC,0.0322
3,GAGAGTTA,0.0167
4,CGAAAATA,0.143
5,ACTCGCGC,0.115
6,ATCTCTTC,0.0603
7,CAAACACA,0.172
8,AGAGTAGA,0.132
9,AGGTCGCC,-0.201
10,CGCGACGA,0.186
11,CAAGCTAG,-0.0475
12,CATCTAGC,-0.0525
13,ACCGGTTC,-0.0158
14,ATGAAGCG,-0.141
15,CACGTTCC,-0.0345
16,CCAATGGG,-0.327
17,AGATTACG,0.213
18,TTTCCAAA,0.02
19,TATAATAA,0.287
20,AGACCTTA,0.0637
21,AGGACGAC,-0.201
22,CATACGCA,-0.0288
23,GATTTTGA,0.194
24,CACGGCCG,-0.0612
25,AATTTATG,0.252

row,Sequence,PBM E-score
1,CATTCTCA,0.201
2,TATATAAA,0.274
3,ACCTCACC,-0.0618
4,ACTCATGA,0.207
5,GTTGATGA,0.177
6,CACACAGG,0.0663
7,GTTCTTCA,0.0992
8,GTGTGTGA,0.0344
9,GAATGGTA,0.057
10,ATGGCAAC,0.161
11,AAATCGTA,0.152
12,AATCCTCG,0.0201
13,AGTGTCTC,-0.0462
14,CCGTTTAA,0.0507
15,CGCTGTCA,-0.151
16,ACCAGTTA,0.139
17,GCTGCCAA,-0.14
18,CACCCACG,0.0674
19,ATATGGCA,0.0955
20,ACAGACTC,-0.246
21,GATGTTGC,0.0753
22,CTCTTTTA,0.0331
23,AGGTTCCG,0.017
24,AAAGATCC,-0.0985
25,CAGGGTCG,-0.203

row,Sequence,PBM E-score
1,CCCGGATC,-0.108
2,AGCCATAC,-0.16
3,TGCACAAA,0.102
4,AGTTCTTG,0.0519
5,CACTGCAC,-0.0913
6,CTTTTTAC,0.112
7,CGGAATAA,0.107
8,ATGGTAAA,0.19
9,AAGATCGT,0.0564
10,AAAATACG,0.234
11,CAATTTCA,0.0657
12,GGAGGGCA,-0.255
13,CGGTCTAG,-0.128
14,TACTGGAA,0.0679
15,ATTAACCG,0.143
16,ATGGATGC,0.0712
17,CAGTACTG,-0.168
18,GACTCTAC,-0.199
19,CGCCGCCG,-0.0221
20,ATCCAAAG,0.165
21,ACTAGGGC,-0.153
22,AAGGGGGG,-0.428
23,CAATCGTA,0.109
24,CACAGCGC,0.0581
25,GTCCTAAC,-0.0915

# Copied from the list.
# CGACCCTC – PBM E-score: -0.232
# TACGTAAA – PBM E-score: 0.319
# AAAATACG – PBM E-score: 0.234
# ATGAAGCG – PBM E-score: -0.141
# ATCTATCG – PBM E-score: -0.0358
# CGGTCTAG – PBM E-score: -0.128
# ATAACTGC – PBM E-score: -0.074

# An excerpt of these results, with bars between the fields:
row | Sequence | PBM E-score
21 | GATGTTGC | 0.0753
22 | CTCTTTTA | 0.0331

# Later entries:

row,Sequence,PBM E-score
1,CCCCAACG,0.0353
2,CGAGTAAC,0.191
3,ACGTGCAT,-0.0838
4,CTAGCACA,-0.136
5,TTCGACAA,0.163
6,ACTTCCCC,-0.251
7,ACAACAAG,0.122
8,CAGCACAC,-0.173
9,GCTGCGGA,0.0222
10,GGACCCTA,-0.251
11,GTGTATCA,0.218
12,AGTGTCAG,0.0192
13,ACTCCATC,0.0933
14,AAGTTAGG,-0.0298
15,ACTCGTCA,0.0393
16,CTTAGGGA,-0.2
17,AACTTTGT,0.129
18,CTTCTGGC,-0.158
19,GGTTATCA,0.0603
20,ATTCCCCA,0.108
21,CAGTAACC,0.0594
22,CACGGGCA,-0.101
23,CCTAGTAC,0.0383
24,CTGCACCA,-0.171
25,CCAGGCAA,0.0306

# Random excerpt: 3 entries already listed.
row,Sequence,PBM E-score
4,CTAGCACA,-0.136
21,CAGTAACC,0.0594
23,CCTAGTAC,0.0383

# Going on with the list.

row,Sequence,PBM E-score
1,CCTGGACA,-0.206
2,GTGGTGAA,-0.0976
3,TGCAACCA,-0.0225
4,CTCATGCC,-0.0546
5,ACGACGGG,-0.0871
6,CTTTTGTA,0.189
7,AGCGAGAC,-0.201
8,CACGGGGC,-0.182
9,CGCCGTGA,-0.14
10,AGAGGTCA,-0.0826
11,CGCCATGC,-0.168
12,GGGTAACA,-0.0006
13,CACGCGTC,0.154
14,ATATAATA,0.299
15,AGACCCTC,-0.277
16,CCCTTAAC,-0.203
17,ATCACTTC,0.172
18,CATTCACG,-0.0375
19,GGTGTGGA,-0.00324
